Measurements taken from article PMC7721737, “Cytosolic sequestration of the vitamin D receptor as a therapeutic option for vitamin D-induced hypercalcemia” (Nature Communications, 2020).
These are yes or no findings as the source states them, for the method shown. In cells and extracts the contact can be indirect. Some results given as binding are weak or reduced against the parent protein; the word gives no strength.

Experiments:
[1] = target: T1, WBP4, endogenous in IEC-18 rat intestinal epithelial cells (rat (endogenous in IEC-18)) (UniProt Q5HZF2); test: co-IP; anti-WBP4 immunoprecipitation of cytosolic extracts of cells in basal conditions (vehicle), VDR immunoblot
T1 sequence: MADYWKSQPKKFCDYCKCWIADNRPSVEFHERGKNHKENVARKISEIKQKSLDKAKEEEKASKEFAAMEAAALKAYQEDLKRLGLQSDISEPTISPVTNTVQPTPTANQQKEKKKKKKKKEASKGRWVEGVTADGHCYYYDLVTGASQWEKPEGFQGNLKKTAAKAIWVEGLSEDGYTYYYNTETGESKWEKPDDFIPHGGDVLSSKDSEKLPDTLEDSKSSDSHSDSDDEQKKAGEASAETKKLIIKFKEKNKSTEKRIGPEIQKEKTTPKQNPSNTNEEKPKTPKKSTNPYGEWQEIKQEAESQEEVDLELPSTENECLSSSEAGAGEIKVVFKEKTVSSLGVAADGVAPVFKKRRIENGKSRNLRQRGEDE

[2] = target: T1, WBP4, endogenous in IEC-18 rat intestinal epithelial cells (rat (endogenous in IEC-18)); test: co-IP; anti-WBP4 immunoprecipitation of cytosolic extracts of cells co-treated with 1,25D3 and ZK, VDR immunoblot; rabbit IgG as negative control
[3] = target: T2, WBP4, endogenous in FB-789 human fibroblasts (human (endogenous in FB-789)) (UniProt O75554); test: co-IP; anti-WBP4 immunoprecipitation of cytosolic extracts of cells in basal conditions (vehicle), VDR immunoblot
T2 sequence: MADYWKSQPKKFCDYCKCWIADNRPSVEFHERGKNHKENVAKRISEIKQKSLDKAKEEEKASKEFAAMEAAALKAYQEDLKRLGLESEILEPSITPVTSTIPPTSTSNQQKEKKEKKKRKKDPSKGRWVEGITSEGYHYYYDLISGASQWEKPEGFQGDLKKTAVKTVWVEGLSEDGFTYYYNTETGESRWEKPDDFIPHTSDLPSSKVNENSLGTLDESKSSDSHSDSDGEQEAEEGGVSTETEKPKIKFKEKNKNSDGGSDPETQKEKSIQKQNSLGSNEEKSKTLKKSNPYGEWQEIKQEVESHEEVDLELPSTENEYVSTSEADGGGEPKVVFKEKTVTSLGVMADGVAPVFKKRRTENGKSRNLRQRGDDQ

[4] = target: T2, WBP4, endogenous in FB-789 human fibroblasts (human (endogenous in FB-789)); test: co-IP; anti-WBP4 immunoprecipitation of cytosolic extracts of cells co-treated with 1,25D3 and ZK, VDR immunoblot; rabbit IgG as negative control
[5] = target: T3, WBP4, endogenous in mouse kidney (mouse (endogenous in kidney)) (UniProt Q61048); test: co-IP; anti-WBP4 immunoprecipitation of total kidney extracts of wild type mice, no co-treatment, VDR immunoblot
T3 sequence: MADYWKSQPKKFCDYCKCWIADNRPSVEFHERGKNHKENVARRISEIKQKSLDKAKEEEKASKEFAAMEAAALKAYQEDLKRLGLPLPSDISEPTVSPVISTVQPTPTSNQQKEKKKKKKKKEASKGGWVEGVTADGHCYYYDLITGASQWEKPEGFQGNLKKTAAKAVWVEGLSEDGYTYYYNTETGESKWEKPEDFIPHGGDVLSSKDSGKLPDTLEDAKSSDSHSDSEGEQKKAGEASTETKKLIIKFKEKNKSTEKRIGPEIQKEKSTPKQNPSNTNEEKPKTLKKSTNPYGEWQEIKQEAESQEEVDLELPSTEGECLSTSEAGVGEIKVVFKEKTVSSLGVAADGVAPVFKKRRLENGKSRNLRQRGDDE

[6] = target: T3, WBP4, endogenous in mouse kidney (mouse (endogenous in kidney)); test: co-IP; anti-WBP4 immunoprecipitation of total kidney extracts of wild type mice treated for 6 h with 1 µg/kg 1,25D3 and 1 µg/kg ZK, VDR immunoblot

B1: vitamin D receptor, endogenous in IEC-18 rat intestinal epithelial cells (receptor, UniProt P13053 1-423)
chain: MEATAASTSLPDPGDFDRNVPRICGVCGDRATGFHFNAMTCEGCKGFFRRSMKRKALFTCPFNGDCRITKDNRRHCQACRLKRCVDIGMMKEFILTDEEVQRKREMIMKRKEEEALKDSLRPKLSEEQQHIIAILLDAHHKTYDPTYADFRDFRPPVRMDGSTGSYSPRPTLSFSGNSSSSSSDLYTTSLDMMEPSGFSNLDLNGEDSDDPSVTLDLSPLSMLPHLADLVSYSIQKVIGFAKMIPGFRDLTSDDQIVLLKSSAIEVIMLRSNQSFTMDDMSWDCGSQDYKYDVTDVSKAGHTLELIEPLIKFQVGLKKLNLHEEEHVLLMAICIVSPDRPGVQDAKLVEAIQDRLSNTLQTYIRCRHPPPGSHQLYAKMIQKLADLRSLNEEHSKQYRSLSFQPENSMKLTPLVLEVFGNEIS
[1]
  binding: binds weakly
[2]
  binding: binds

B2: vitamin D receptor, endogenous in FB-789 human fibroblasts (receptor, UniProt P11473 1-427)
chain: MEAMAASTSLPDPGDFDRNVPRICGVCGDRATGFHFNAMTCEGCKGFFRRSMKRKALFTCPFNGDCRITKDNRRHCQACRLKRCVDIGMMKEFILTDEEVQRKREMILKRKEEEALKDSLRPKLSEEQQRIIAILLDAHHKTYDPTYSDFCQFRPPVRVNDGGGSHPSRPNSRHTPSFSGDSSSSCSDHCITSSDMMDSSSFSNLDLSEEDSDDPSVTLELSQLSMLPHLADLVSYSIQKVIGFAKMIPGFRDLTSEDQIVLLKSSAIEVIMLRSNESFTMDDMSWTCGNQDYKYRVSDVTKAGHSLELIEPLIKFQVGLKKLNLHEEEHVLLMAICIVSPDRPGVQDAALIEAIQDRLSNTLQTYIRCRHPPPGSHLLYAKMIQKLADLRSLNEEHSKQYRCLSFQPECSMKLTPLVLEVFGNEIS
[3]
  binding: binds weakly
[4]
  binding: binds

B3: vitamin D receptor, endogenous in mouse kidney (receptor, UniProt P48281 1-422)
chain: MEAMAASTSLPDPGDFDRNVPRICGVCGDRATGFHFNAMTCEGCKGFFRRSMKRKALFTCPFNGDCRITKDNRRHCQACRLKRCVDIGMMKEFILTDEEVQRKREMIMKRKEEEALKDSLRPKLSEEQQHIIAILLDAHHKTYDPTYADFRDFRPPIRADVSTGSYSPRPTLSFSGDSSSNSDLYTPSLDMMEPASFSTMDLNEEGSDDPSVTLDLSPLSMLPHLADLVSYSIQKVIGFAKMIPGFRDLTSDDQIVLLKSSAIEVIMLRSNQSFTLDDMSWDCGSQDYKYDITDVSRAGHTLELIEPLIKFQVGLKKLNLHEEEHVLLMAICIVSPDRPGVQDAKLVEAIQDRLSNTLQTYIRCRHPPPGSHQLYAKMIQKLADLRSLNEEHSKQYRSLSFQPENSMKLTPLVLEVFGNEIS
[5]
  binding: binds weakly
[6]
  binding: binds
